Article PMC5419085
Results are given in words; binding and its absence hold for the method and conditions named. A result given as binding can be weak or reduced; the word gives no strength.

Target: full-length human LRP1 (low-density lipoprotein receptor-related protein 1) (human)
Assay: ELISA; full-length human LRP1 (5 nM) coated on microtiter plates; various concentrations of FLAG-tagged ADAMTS-5-2, ADAMTS-4 lacking spacer domain or TIMP-3 with or without 1B7 or RAP (each 100 nM); detected by anti-FLAG M2 and HRP-conjugated secondary antibody; TNC buffer, 2 h, room temperature; both purified

binding: binds
B1: tissue inhibitor of metalloproteinases 3 (TIMP-3) (protein, UniProt P35625 24-211)
chain: CTCSPSHPQDAFCNSDIVIRAKVVGKKLVKEGPFGTLVYTIKQMKMYRGFTKMPHVQYIHTEASESLCGLKLEVNKYQYLLTGRVYDGKMYTGLCNFVERWDQLTLSQRKGLNYRYHLGCNCKIKSCYYLPCFVTSKNECLWTDMLSNFGYPGYQSKHYACIRQKGGYCSWYRGWAPPDKSIINATDP
